# The list shows a part of the results.
# Tested on: T1, CTL2-GFP (C. trachomatis L2/434/Bu, GFP-expressing)
# T1 construct: L2/434/Bu, GFP-expressing
# Parameters: species or system HeLa; Intracellular C. trachomatis growth in HeLa cells, bulk GFP fluorescence relative to DMSO
# Details: bulk GFP, single well; 28.5 h, 10 µM; inhibitor
row,SMILES,% of control remaining [%]
1,CS(=O)(=O)c1ccc(Cn2ccnc(N3CCN(C(=O)C4CCCCC4)CC3)c2=O)cc1 [CBK153771],149.908
2,Cc1ccc(C2(O)CCN(Cc3cnn(C)c3C)CC2)cc1 [CBK282736],162.904
3,CCn1c(CNC(=O)c2cn3cc(C)ccc3n2)nc2ccccc21 [CBK281395],99.8098
4,O=C(NCCNCCNC(=O)C1(c2ccccc2)CCCC1)C1(c2ccccc2)CCCC1 [CBK017670],14.7357
5,CC(C)Nc1nc2cc(Cl)c(Cl)cc2nc1Sc1nc[nH]n1 [CBK115261],89.2832
6,Cc1cccc(NC(=O)C(CC(=O)O)NCc2ccccc2)c1 (centres unmarked) [CBK266821],158.409
7,Cc1cc(CN2CCC(O)(c3cccnc3F)CC2)oc1C [CBK282124],163.061
8,S=C(NCC1CCN(C(=S)Nc2cccc3ccccc23)CC1)Nc1cccc2ccccc12 [CBK016070],84.5048
9,O=C(O)c1cccc(NS(=O)(=O)c2ccc(S(=O)(=O)N3CCCCC3)cc2)c1 [CBK295295],134.106
10,Nc1nnc(SCC(=O)N2CCN(C(c3ccccc3)c3ccccc3)CC2)n1-c1ccccc1 [CBK266696],94.4055
11,N#CCCN(C(=O)NCc1cccc2ccccc12)C1CCCCC1 [CBK156353],103.819
12,COc1cc(NC(=O)CC2(C(=O)O)CCCCC2)ccc1N1CCCC1=O [CBK296761],126.263
13,COc1cccc(OCCO)c1 [CBK000514],133.328
14,CCCc1ccc(S(=O)(=O)Nc2c(C(=O)N(CC)CC)[nH]c3ccccc23)cc1 [CBK050111],114.024
15,O=C(CSc1ccc2ccccc2n1)Nc1ccnc2ccccc12 [CBK176848],88.3559
16,O=C(O)CNS(=O)(=O)c1cc(Cl)c(Cl)cc1Cl [CBK266136],139.733
17,COc1cc(C(=O)N2CCN(Cc3c[nH]c4ccccc34)CC2)cc(OC)c1OC [CBK301212G],166.688
18,CN1CCN(CCCN2C(=O)CSC2c2cccc([N+](=O)[O-])c2)CC1 (centres unmarked) [CBK278237C],98.166
19,CCC(C)NC1=NC(=O)C(CC(=O)Nc2ccccc2Cl)S1 (centres unmarked) [CBK059133T],112.824
20,Cc1ccc(C(=O)C2=C(O)C(=O)N(CCCn3ccnc3)C2c2ccncc2)cc1 (centres unmarked) [CBK264476],134.523
21,c1ccc2cc(-c3cn4ccnc4c(NC4CCOCC4)n3)ccc2c1 [CBK066290],174.504
22,Cc1cc(=O)n(CC(=O)NC(C)Cc2ccccn2)c2ccccc12 (centres unmarked) [CBK281420],119.944
23,Cc1cc(C)n(C2CN(CC(=O)NCc3ccccn3)C2)n1 [CBK306238],130.464
24,CC(C)(O)c1cc(CC2(NCC3CCCCC3)COC2)no1 [CBK289656],134.727
25,CC(=O)NCCSc1nccnc1N1CCCC1 [CBK105619],108.587
26,COc1cc(NC(=O)C2CCCN2)ccc1-n1cccc1 (centres unmarked) [CBK282500],140.52
27,CN1CCCc2cc(-c3cncn3CC(=O)NC(C)(C)C)ccc21 [CBK281700],113.616

row,SMILES,% of control remaining [%]
1,COc1ccc2[nH]c3c(c2c1)CCOC31CCN(C(=O)CC(C)CC(=O)O)CC1 (centres unmarked) [CBK047197],99.1285
2,O=C(Nc1ccc2ncsc2c1)C1COc2ccccc2O1 (centres unmarked) [CBK287750],102.15
3,COC(=O)c1sc(-c2ccsc2)cc1N [CBK006256],146.994
4,Cc1ccc([N+](=O)[O-])cc1NC(=O)CSc1nnc(-c2ccco2)o1 [CBK268378],121.173
5,CCOC(=O)c1cnn(C)c1-c1ccc(F)cc1OC [CBK149233],99.4871
6,Cc1cnccc1CN1CCC[C@@H]2CN(C(=O)CC(C)C)C[C@@H]21 [CBK285289],86.2151
7,COCCCNCCSc1ccc(Cl)cc1 [CBK265093],112.041
8,Cc1ccn2c(C3CCN(CCc4ccccc4)CC3)nc(-c3ccccc3)c2c1 [CBK035490],142.492
9,Ic1cnn(Cc2nc(-c3ccc4c(c3)OCO4)no2)c1 [CBK270050],73.707
10,Fc1cccc(Sc2nnnn2-c2ccccc2)c1 [CBK002906],102.761
11,O=S(=O)(Nc1cccc2[nH]ccc12)c1sc(Cl)cc1Br [CBK153552],125.242
12,O=C(Nc1ccc(Cl)c(Cl)c1)c1cnc2n(c1=O)CCS2 [CBK287381],124.333
13,O=C(C1CCCCC1)N1CCC(n2nc(C3CC3)ccc2=O)CC1 [CBK284240],108.667
14,CC(C)COC(=O)N1CCN(C2CCc3cc(-c4ccc([S+](C)[O-])cc4)ccc3C2)CC1 (centres unmarked) [CBK173425],123.249
15,CC(=O)Nc1cccc(CN2CCCC2CC(O)c2ccccc2)c1 (centres unmarked) [CBK305136],120.64
16,O=C(O)/C=C/C(=O)N(Cc1ccccn1)Cc1ccco1 [CBK286660],133.734
17,Cc1cnc(CNC(=O)c2ccc(-c3ccoc3)nc2)cn1 [CBK156267],162.479
18,O=C(CSc1nnc2ccc(-c3ccccc3)nn12)N1CCCCC1 [CBK287678],167.847
19,O=C(O)[C@@H]1CCCN1C(=O)C1CCC(Cn2nnc3ccccc3c2=O)CC1 (some centres unmarked) [CBK286658],129.6
20,Cc1cnc2c(c1)cc(C(F)(F)F)n2CC(=O)NC1CC1 [CBK282887],122.747
21,CCn1c(SCC(=O)Nc2cc(Cl)ccc2O)nnc1-c1ccccc1 [CBK269680],96.6605
22,Cc1nc2sccn2c1CN1CCCC(C(=O)N2CCOCC2)C1 (centres unmarked) [CBK305390],126.801
23,FC(F)(F)c1ccc(SCc2ccccc2)nc1 [CBK103715],103.421
24,O=[N+]([O-])c1ccccc1S(=O)(=O)Nc1ccc(S(=O)(=O)Nc2ncccn2)cc1 [CBK264768],58.2429
25,O=C(NC(=S)Nc1cccc2c(O)cccc12)c1ccc(-c2ccccc2)cc1 [CBK269022],139.978
26,CN(C)CCNC(=O)c1sc2ccccc2c1CC1CCCCCN1C(=O)C1CCC1 (centres unmarked) [CBK286096],97.4604
27,COc1ccccc1-c1noc(C2CCN(S(=O)(=O)c3ccc(F)cc3)CC2)n1 [CBK269401],103.899

row,SMILES,% of control remaining [%]
1,Cc1cccc(OCC(C)NC(=O)NCCc2cnn(C)c2)c1 (centres unmarked) [CBK304887],10.0772
2,Cc1nnnn1-c1cc(NC(=O)N(C)C(C)C)ccc1F [CBK304708],94.9468
3,NC(=O)C1(N2CCCCC2)CCN(CC(=O)Nc2ccccc2Sc2ccccc2)CC1 [CBK268488],138.938
4,O=C(Cc1c(O)c2ccccc2[nH]c1=O)NCc1ccccc1Cl [CBK160320],91.3792
5,N=c1n(CC(=O)O)c2ccccc2n1Cc1ccccc1Cl [CBK262917B],100.224
6,O=C(C1CC=CCC1)N1CCCC(c2[nH]ncc2-c2ccncc2)C1 (centres unmarked) [CBK284198],91.3108
7,O=C(Cn1cccn1)NC(Cc1ccsc1)c1cccnc1 (centres unmarked) [CBK285396],115.98
8,CCC(CN1CCCCC1)n1cncc1-c1cn(C)nc1C (centres unmarked) [CBK281460],112.117
9,COCc1nnc(Sc2nc3ccccc3nc2NC(C)C)s1 [CBK115253],100
10,NC(=O)c1ccc(-n2cc(-c3ccc(Cl)cc3)nn2)cc1 [CBK113046],161.679
11,COc1ccccc1C1(O)CCN(CC(O)c2ccc3c(c2)OCCO3)CC1 (centres unmarked) [CBK286482],120.694
12,Cc1ccc(-c2ccc(/C=C(\C#N)c3nc(-c4ccco4)cs3)o2)c([N+](=O)[O-])c1 [CBK266685],128.116
13,CCCC(=O)c1ccc(S(=O)(=O)N2CCN(Cc3ccc(C(C)=O)cc3)CC2)cc1 [CBK063159],92.8818
14,c1ccc(C(Nc2cnccn2)C2CC2)cc1 (centres unmarked) [CBK304145],81.4465
15,CC1=CC(C)C(C(=O)O)C(C(=O)Nc2ccccc2)C1 (centres unmarked) [CBK286851],113.847
16,CCCC(=O)Nc1ccccc1OC1CCNCC1 [CBK045902T],81.6865
17,O=C(Nc1ccnn1Cc1ccccc1)C1CC(c2cccc(F)c2)=NO1 (centres unmarked) [CBK297772],114.177
18,COc1ccc(-c2cn3ccnc3c(Nc3ccc(N4CCOCC4)cc3)n2)cc1 [CBK066265],149.934
19,COC(=O)Cn1c(C(C)(C)C)cn2c3c(=O)n(C)c(=O)n(C)c3nc12 [CBK307555],149.999
20,CCOC(=O)c1ccc(NC(=O)N2CCC3(CC2)NC(=O)Cc2ccccc23)cc1 [CBK047362],109.095
21,CC(C)C1CC(CCNCc2ccc(N(C)C)cc2)(c2ccccc2)CCO1 (centres unmarked) [CBK266210],135.575
22,O=C(Cc1cccc2ccccc12)NC(NC(=S)Nc1ccccc1Br)C(Cl)(Cl)Cl (centres unmarked) [CBK261094],92.2744
23,c1ccc2cc(-c3cn4ccnc4c(N4CCN(c5ccncc5)CC4)n3)ccc2c1 [CBK066369],115.076
24,CN(C)C(=O)CN1CCC2(CC1)CN(S(C)(=O)=O)c1ccccc12 [CBK126686],116.035
25,CC(=O)N1CCC(C(=O)NC(=O)Nc2cccc(C)c2)CC1 [CBK034854],115.084
26,O=C(Nc1cccnc1N1CCNCC1)c1ccccn1 [CBK029425T],97.6623

# — PMC12040169 (PLOS Biology, 2025)
